Values of other authors, collected in patent US20100048608A1, “Histone Deacetylase Inhibitors for the Treatment of Ocular Neovascular or Edematous Disorders and Diseases” (ALCON, INC., priority 2002, published 2010).

Tested on: VEGF-induced neovascularization
Conditions: Deroanne et al. 2002

For `O=C(CCCCCCC(=O)Nc1ccccc1)NO` [SAHA, suberoylanilide hydroxamic acid], the “inhibition of VEGF-induced neovascularization” value is listed as “can inhibit VEGF-induced neovascularization”.
